Measured values taken from the supplement of paper PMC6411743.
± gives the standard deviation of the averaged measurements. Some of the results follow.

By UniProt entry, the sequences of proteins in these tests, tags left out. Where a name states a change or a piece, a line headed by the entry shows the natural chain unless it says otherwise.
UniProt P57764: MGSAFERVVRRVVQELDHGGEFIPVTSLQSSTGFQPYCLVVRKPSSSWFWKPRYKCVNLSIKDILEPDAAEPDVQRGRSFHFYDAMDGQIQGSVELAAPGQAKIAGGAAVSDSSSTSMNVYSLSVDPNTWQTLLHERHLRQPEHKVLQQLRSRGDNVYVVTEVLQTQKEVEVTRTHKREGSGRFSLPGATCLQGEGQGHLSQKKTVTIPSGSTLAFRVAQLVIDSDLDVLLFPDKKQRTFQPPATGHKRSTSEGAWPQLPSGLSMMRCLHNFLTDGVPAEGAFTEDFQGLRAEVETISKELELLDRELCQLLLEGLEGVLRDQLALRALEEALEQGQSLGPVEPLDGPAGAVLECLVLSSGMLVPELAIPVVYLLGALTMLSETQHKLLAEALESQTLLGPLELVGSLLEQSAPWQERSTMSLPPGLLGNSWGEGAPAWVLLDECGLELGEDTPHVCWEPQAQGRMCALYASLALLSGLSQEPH
UniProt P63104: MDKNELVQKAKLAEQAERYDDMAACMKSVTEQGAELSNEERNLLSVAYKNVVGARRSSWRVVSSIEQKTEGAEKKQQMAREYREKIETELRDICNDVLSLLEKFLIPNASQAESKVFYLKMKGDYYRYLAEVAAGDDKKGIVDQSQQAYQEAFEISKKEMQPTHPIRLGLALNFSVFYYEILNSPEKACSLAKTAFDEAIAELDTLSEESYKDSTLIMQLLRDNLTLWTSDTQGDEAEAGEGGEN
UniProt Q96QD8: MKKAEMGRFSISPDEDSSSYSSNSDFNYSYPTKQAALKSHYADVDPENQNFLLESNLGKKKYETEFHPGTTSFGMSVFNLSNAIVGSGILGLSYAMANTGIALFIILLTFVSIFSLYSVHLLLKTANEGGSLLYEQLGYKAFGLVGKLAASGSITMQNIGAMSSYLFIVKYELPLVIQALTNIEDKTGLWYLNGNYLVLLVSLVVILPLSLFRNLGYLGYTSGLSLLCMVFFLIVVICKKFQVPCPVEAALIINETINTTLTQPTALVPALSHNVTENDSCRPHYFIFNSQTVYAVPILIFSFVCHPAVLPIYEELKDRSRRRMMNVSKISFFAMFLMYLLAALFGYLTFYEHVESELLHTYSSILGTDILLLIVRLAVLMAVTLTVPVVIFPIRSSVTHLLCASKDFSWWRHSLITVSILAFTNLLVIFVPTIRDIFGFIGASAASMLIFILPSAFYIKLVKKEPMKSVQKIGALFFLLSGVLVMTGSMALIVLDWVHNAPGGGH
UniProt P48382: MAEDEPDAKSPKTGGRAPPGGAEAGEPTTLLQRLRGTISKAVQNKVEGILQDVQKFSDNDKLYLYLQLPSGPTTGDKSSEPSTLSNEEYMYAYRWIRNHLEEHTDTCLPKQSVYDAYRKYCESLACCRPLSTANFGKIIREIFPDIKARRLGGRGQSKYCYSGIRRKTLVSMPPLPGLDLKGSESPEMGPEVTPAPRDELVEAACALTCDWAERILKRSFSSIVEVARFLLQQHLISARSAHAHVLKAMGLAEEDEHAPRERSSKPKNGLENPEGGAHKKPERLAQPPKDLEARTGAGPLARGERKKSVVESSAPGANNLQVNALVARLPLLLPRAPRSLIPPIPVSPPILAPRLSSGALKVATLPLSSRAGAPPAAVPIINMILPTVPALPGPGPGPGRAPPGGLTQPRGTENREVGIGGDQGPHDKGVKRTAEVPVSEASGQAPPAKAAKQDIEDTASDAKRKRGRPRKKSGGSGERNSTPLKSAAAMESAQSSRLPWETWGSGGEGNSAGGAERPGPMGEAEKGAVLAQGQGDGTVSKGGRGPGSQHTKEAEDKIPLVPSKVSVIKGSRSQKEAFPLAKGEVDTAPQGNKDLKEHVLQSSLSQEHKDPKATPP
UniProt O00193: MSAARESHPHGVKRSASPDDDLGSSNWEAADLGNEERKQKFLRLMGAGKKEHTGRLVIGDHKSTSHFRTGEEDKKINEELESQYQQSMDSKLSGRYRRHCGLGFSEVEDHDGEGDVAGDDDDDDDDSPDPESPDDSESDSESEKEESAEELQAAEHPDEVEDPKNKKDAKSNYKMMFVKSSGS
UniProt Q12768: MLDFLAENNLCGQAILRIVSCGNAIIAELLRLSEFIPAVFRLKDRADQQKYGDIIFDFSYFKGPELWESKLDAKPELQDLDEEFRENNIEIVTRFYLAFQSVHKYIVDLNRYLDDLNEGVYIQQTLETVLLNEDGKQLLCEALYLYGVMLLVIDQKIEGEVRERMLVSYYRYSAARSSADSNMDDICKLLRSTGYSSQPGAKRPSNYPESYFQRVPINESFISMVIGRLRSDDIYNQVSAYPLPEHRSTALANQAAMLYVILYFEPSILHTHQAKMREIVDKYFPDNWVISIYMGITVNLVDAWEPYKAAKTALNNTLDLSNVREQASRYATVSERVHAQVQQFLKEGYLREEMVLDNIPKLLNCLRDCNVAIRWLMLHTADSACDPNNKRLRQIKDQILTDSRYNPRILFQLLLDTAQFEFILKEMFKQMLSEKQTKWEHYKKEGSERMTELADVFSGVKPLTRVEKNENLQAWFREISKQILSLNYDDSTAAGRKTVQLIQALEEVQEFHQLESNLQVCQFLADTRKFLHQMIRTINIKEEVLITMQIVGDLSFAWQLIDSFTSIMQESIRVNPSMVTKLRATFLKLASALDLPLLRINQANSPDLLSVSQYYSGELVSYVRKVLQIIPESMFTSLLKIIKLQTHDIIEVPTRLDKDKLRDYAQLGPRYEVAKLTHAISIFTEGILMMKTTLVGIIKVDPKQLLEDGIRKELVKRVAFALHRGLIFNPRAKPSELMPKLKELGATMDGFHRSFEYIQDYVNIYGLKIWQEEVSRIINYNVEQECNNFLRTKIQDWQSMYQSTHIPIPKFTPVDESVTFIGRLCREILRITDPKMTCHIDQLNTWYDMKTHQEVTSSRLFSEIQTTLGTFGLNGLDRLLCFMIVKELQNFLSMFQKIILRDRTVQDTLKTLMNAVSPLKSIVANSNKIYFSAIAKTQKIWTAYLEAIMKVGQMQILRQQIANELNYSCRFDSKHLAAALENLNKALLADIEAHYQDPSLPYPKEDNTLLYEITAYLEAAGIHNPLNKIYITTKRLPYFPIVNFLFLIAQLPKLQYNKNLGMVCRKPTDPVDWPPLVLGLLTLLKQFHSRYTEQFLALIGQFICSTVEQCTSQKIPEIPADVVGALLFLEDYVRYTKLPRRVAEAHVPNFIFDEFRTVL
UniProt Q13206, whole entry: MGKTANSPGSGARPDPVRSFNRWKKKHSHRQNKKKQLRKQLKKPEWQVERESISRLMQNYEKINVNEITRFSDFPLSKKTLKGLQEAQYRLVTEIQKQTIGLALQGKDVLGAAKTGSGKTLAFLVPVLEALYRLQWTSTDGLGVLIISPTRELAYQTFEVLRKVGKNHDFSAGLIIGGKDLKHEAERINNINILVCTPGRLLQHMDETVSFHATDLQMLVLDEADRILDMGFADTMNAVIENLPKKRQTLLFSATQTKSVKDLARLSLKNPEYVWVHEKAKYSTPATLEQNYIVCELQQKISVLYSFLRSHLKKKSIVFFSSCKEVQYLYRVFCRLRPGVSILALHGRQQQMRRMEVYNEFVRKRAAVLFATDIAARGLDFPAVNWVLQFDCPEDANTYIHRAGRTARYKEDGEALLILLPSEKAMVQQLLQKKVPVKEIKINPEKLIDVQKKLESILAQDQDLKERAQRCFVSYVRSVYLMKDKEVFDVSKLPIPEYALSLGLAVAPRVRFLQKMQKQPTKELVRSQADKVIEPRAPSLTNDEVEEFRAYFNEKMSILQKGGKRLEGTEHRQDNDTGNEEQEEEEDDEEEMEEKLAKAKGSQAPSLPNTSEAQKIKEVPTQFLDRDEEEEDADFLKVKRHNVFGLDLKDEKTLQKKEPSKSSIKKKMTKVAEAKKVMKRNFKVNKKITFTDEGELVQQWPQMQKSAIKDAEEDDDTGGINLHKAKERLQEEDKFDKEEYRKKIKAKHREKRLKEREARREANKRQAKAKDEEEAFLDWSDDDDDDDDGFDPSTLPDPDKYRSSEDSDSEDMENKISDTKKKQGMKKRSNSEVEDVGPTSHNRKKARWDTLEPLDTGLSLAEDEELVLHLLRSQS
UniProt P07311: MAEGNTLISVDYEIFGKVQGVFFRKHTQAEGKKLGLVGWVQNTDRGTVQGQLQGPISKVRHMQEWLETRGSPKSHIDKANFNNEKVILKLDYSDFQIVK
UniProt O00764: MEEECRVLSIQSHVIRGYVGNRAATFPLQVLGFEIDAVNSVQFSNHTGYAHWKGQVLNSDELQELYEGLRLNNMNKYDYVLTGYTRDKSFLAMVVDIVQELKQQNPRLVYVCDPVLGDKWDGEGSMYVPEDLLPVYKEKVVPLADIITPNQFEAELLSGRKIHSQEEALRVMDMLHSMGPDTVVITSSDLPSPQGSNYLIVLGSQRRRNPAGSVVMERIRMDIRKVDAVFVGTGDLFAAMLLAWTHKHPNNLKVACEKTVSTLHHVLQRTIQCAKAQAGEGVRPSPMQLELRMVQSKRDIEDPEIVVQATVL
UniProt Q9H2H9: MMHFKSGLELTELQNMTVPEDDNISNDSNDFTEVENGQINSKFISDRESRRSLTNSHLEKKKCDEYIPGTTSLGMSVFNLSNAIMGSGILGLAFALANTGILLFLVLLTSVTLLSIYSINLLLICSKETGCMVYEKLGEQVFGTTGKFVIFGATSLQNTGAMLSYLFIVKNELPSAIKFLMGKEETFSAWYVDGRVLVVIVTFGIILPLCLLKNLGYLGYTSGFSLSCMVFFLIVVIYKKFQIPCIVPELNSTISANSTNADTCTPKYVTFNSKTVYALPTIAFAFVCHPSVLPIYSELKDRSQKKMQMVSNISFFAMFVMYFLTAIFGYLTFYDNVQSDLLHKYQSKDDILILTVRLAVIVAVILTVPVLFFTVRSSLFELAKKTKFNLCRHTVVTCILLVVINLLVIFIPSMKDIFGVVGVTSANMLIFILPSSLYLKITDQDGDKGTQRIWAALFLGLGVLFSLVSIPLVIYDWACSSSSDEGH
UniProt Q9H9L4: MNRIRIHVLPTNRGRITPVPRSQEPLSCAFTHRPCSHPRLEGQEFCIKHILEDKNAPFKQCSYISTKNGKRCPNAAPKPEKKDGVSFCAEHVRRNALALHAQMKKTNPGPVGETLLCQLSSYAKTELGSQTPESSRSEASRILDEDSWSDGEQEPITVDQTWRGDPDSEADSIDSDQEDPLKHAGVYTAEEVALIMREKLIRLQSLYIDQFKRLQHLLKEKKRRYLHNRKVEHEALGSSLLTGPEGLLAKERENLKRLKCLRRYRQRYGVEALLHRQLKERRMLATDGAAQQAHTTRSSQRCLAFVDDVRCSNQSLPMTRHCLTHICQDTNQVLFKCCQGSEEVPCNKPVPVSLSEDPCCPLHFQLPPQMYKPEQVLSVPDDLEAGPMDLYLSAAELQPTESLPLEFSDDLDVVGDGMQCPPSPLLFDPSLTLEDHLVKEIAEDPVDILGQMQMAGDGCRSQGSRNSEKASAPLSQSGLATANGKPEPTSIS
UniProt Q03426, whole entry: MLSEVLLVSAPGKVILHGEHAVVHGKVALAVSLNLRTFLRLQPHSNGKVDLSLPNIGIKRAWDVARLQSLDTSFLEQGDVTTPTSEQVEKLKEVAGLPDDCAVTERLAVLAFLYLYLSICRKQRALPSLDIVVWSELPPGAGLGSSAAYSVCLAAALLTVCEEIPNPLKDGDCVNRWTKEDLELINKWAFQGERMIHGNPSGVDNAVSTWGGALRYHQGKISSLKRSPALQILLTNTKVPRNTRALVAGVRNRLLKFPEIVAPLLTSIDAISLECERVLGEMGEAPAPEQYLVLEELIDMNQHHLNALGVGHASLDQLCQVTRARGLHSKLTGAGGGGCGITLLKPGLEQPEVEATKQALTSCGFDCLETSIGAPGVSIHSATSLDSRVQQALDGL
UniProt Q8WYH8, whole entry: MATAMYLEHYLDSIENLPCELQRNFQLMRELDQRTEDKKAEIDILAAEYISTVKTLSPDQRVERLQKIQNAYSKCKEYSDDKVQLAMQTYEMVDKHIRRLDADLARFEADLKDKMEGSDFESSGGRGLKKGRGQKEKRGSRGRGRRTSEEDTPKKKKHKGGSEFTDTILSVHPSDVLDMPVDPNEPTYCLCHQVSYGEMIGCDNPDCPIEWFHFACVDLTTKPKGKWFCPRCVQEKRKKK
UniProt Q08623: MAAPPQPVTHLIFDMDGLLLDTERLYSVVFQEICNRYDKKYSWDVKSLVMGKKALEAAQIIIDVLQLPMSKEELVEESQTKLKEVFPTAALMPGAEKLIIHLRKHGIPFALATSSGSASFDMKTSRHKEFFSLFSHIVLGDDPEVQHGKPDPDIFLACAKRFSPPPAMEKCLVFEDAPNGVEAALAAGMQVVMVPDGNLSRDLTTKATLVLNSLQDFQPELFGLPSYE
UniProt P61020: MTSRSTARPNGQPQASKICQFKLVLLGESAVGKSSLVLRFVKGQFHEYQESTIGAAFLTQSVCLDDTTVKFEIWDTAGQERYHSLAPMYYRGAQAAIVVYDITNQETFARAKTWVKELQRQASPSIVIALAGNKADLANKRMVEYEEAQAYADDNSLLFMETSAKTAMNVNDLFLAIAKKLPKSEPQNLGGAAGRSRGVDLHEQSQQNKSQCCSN

Compound: Nc1nc2c(ncn2[C@@H]2O[C@H](COP(=O)(O)OP(=O)(O)OP(=O)(O)O)[C@@H](O)[C@H]2O)c(=O)[nH]1 [guanosine triphosphate]
Assay: NP40-soluble protein abundance relative to vehicle (solubility fold change) (ratio); higher = more soluble protein in presence of GTP
In short: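 Jurkat crude lysate prepared with a Dounce homogeniser was treated at eight concentrations spanning 0.1 to 10 mM, 10 min at room temperature then 3 min at 37 °C. Solubilisation with 0.8% NP40 and benzonase and ultracentrifugation preceded TMT labelling of the supernatant for LC-MS/MS. Fold change against the detergent-processed vehicle was determined per replicate from vsn-normalised intensities, across three independent experiments.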

Target	NP40-soluble protein abundance (concentration: 0.1mM)	NP40-soluble protein abundance (concentration: 0.5mM)	NP40-soluble protein abundance (concentration: 1mM)	NP40-soluble protein abundance (concentration: 2mM)	NP40-soluble protein abundance (concentration: 4mM)	NP40-soluble protein abundance (concentration: 6mM)	NP40-soluble protein abundance (concentration: 8mM)	NP40-soluble protein abundance (concentration: 10mM)
E9PQR9 and related entries (UniProt P57764)	1.04 ± 0.056	0.994 ± 0.025	0.946 ± 0.024	0.927 ± 0.041	0.958 ± 0.065	0.901 ± 0.051	0.943 ± 0.057	0.895 ± 0.049
E7EVZ2 and related entries (UniProt P63104)	0.783 ± 0.072	0.766 ± 0.03	0.93 ± 0.12	0.916 ± 0.023	0.882 ± 0.042	0.913 ± 0.029	0.851 ± 0.098	1 ± 0.11
F8VUY8 and related entries (UniProt Q96QD8)	0.912 ± 0.12	0.952 ± 0.16	0.895 ± 0.11	0.903 ± 0.23	0.886 ± 0.13	0.856 ± 0.1	0.915 ± 0.065	0.947 ± 0.059
E7EW84 and related entries (UniProt Q8TAG9)	0.9794 ± 0.0039	0.996 ± 0.039	0.959 ± 0.064	1.08 ± 0.082	1.01 ± 0.12	0.897 ± 0.022	0.882 ± 0.025	0.966 ± 0.18
F8VXG7 and related entries (UniProt Q99590)	1.02 ± 0.064	1.13 ± 0.03	1.22 ± 0.025	1.26 ± 0.058	1.3 ± 0.042	1.31 ± 0.031	1.4 ± 0.1	1.42 ± 0.12
F8W689 and related entries (UniProt P48382)	0.985 ± 0.053	0.955 ± 0.061	1.05 ± 0.034	1.05 ± 0.054	1.04 ± 0.036	1.08 ± 0.02	1.03 ± 0.047	1.13 ± 0.052
E9PM92 and related entries (UniProt O00193+E9PM92)	0.96 ± 0.058	1.02 ± 0.085	1.25 ± 0.036	1.17 ± 0.093	1.15 ± 0.055	1.2 ± 0.14	1.22 ± 0.092	1.28 ± 0.032
F5GX19 and related entries (UniProt Q6IAA8)	0.996 ± 0.061	0.938 ± 0.074	1.1 ± 0.085	1.1 ± 0.091	1.09 ± 0.043	1.07 ± 0.09	1.05 ± 0.054	1.12 ± 0.04
E7EQI7 and related entries (UniProt Q12768)	1.07 ± 0.063	1.03 ± 0.036	0.989 ± 0.037	1.02 ± 0.052	1.02 ± 0.059	1.03 ± 0.038	0.949 ± 0.066	0.941 ± 0.018
E9PGC8 (UniProt P78559)	0.986 ± 0.06	0.976 ± 0.062	1.01 ± 0.069	0.962 ± 0.071	0.962 ± 0.061	0.973 ± 0.059	1 ± 0.064	0.999 ± 0.074
E9PIF2 and related entries (UniProt Q13206)	0.999 ± 0.029	0.975 ± 0.057	1.06 ± 0.048	1.05 ± 0.066	0.976 ± 0.08	0.971 ± 0.058	0.961 ± 0.087	0.996 ± 0.041
E7ESS3 and related entries (UniProt Q71RG4)	0.947 ± 0.14	0.972 ± 0.18	1.03 ± 0.17	1.02 ± 0.21	1.05 ± 0.2	1 ± 0.27	0.948 ± 0.059	0.894 ± 0.091
G3V2U7 and related entries (UniProt P07311)	0.918 ± 0.04	0.896 ± 0.055	0.896 ± 0.058	0.852 ± 0.061	0.851 ± 0.064	0.848 ± 0.073	0.854 ± 0.094	0.842 ± 0.097
F2Z2Y4 and related entries (UniProt O00764)	1 ± 0.072	1.01 ± 0.09	0.942 ± 0.055	0.918 ± 0.095	0.905 ± 0.071	0.91 ± 0.08	0.88 ± 0.063	0.868 ± 0.086
F8VX04 and related entries (UniProt Q9H2H9)	0.959 ± 0.2	0.968 ± 0.11	0.874 ± 0.16	0.874 ± 0.1	0.985 ± 0.23	0.858 ± 0.19	0.89 ± 0.15	0.912 ± 0.18
G3XAI2 and related entries (UniProt P07942)	1.02 ± 0.19	0.952 ± 0.17	0.922 ± 0.12	0.924 ± 0.26	0.955 ± 0.2	0.929 ± 0.17	0.948 ± 0.15	0.966 ± 0.15
F5GYK2 and related entries (UniProt Q9NRL3)	1.03 ± 0.025	1.03 ± 0.093	1.05 ± 0.045	1.04 ± 0.055	1.07 ± 0.027	1.03 ± 0.019	1.1 ± 0.071	1.08 ± 0.094
F8VX10 and related entries (UniProt Q9H9L4)	1.01 ± 0.087	1.09 ± 0.098	1.11 ± 0.058	1.15 ± 0.072	1.18 ± 0.13	1.18 ± 0.23	1.27 ± 0.22	1.24 ± 0.16
F5H8H2 and related entries (UniProt Q03426)	1.03 ± 0.043	1.01 ± 0.04	0.939 ± 0.056	0.957 ± 0.033	0.95 ± 0.038	0.931 ± 0.058	0.901 ± 0.073	0.896 ± 0.11
E7EW05 and related entries (UniProt Q9NVU7)	1.07 ± 0.046	1.01 ± 0.055	1.04 ± 0.053	1.08 ± 0.023	1.12 ± 0.048	1.11 ± 0.03	1.23 ± 0.044	1.19 ± 0.066
E9PEN0 and related entries (UniProt Q8WYH8)	1.1 ± 0.098	1.07 ± 0.16	1.26 ± 0.41	1.19 ± 0.26	1.33 ± 0.3	1.5 ± 0.35	1.48 ± 0.39	2 ± 0.59
E9PC74 and related entries (UniProt Q13144)	1.06 ± 0.086	1.11 ± 0.075	1.05 ± 0.043	1.09 ± 0.1	1.07 ± 0.099	1.1 ± 0.059	1.06 ± 0.068	1.03 ± 0.078
E7EVH9 and related entries (UniProt Q08623)	1 ± 0.035	0.921 ± 0.058	1.03 ± 0.12	0.97 ± 0.15	0.928 ± 0.15	0.894 ± 0.072	0.901 ± 0.12	0.934 ± 0.1
F8VVZ0 and related entries (UniProt P61020)	0.989 ± 0.017	1.01 ± 0.055	0.944 ± 0.095	0.932 ± 0.081	0.891 ± 0.023	0.928 ± 0.12	0.903 ± 0.14	0.87 ± 0.065
F8VZ69 and related entries (UniProt Q9UQ80)	0.903 ± 0.057	0.926 ± 0.052	0.843 ± 0.048	0.813 ± 0.045	0.778 ± 0.036	0.823 ± 0.046	0.799 ± 0.058	0.789 ± 0.054

Looked up one by one from the list above (two):
Target	NP40-soluble protein abundance (concentration: 0.1mM)	NP40-soluble protein abundance (concentration: 0.5mM)	NP40-soluble protein abundance (concentration: 1mM)	NP40-soluble protein abundance (concentration: 2mM)	NP40-soluble protein abundance (concentration: 4mM)	NP40-soluble protein abundance (concentration: 6mM)	NP40-soluble protein abundance (concentration: 8mM)	NP40-soluble protein abundance (concentration: 10mM)
E7EW05 and related entries (UniProt Q9NVU7)	1.07 ± 0.046	1.01 ± 0.055	1.04 ± 0.053	1.08 ± 0.023	1.12 ± 0.048	1.11 ± 0.03	1.23 ± 0.044	1.19 ± 0.066
E9PQR9 and related entries (UniProt P57764)	1.04 ± 0.056	0.994 ± 0.025	0.946 ± 0.024	0.927 ± 0.041	0.958 ± 0.065	0.901 ± 0.051	0.943 ± 0.057	0.895 ± 0.049
